No constants are given. Whether binding was seen depends on the method and setting. In cells and extracts the contact can be indirect. Some entries that bind do so weakly or less than the wild type.
Biological target: T1, Signal transducer and activator of transcription 1 (STAT1) (mouse (endogenous in RAW264.7)) (UniProt P42225)
T1 sequence: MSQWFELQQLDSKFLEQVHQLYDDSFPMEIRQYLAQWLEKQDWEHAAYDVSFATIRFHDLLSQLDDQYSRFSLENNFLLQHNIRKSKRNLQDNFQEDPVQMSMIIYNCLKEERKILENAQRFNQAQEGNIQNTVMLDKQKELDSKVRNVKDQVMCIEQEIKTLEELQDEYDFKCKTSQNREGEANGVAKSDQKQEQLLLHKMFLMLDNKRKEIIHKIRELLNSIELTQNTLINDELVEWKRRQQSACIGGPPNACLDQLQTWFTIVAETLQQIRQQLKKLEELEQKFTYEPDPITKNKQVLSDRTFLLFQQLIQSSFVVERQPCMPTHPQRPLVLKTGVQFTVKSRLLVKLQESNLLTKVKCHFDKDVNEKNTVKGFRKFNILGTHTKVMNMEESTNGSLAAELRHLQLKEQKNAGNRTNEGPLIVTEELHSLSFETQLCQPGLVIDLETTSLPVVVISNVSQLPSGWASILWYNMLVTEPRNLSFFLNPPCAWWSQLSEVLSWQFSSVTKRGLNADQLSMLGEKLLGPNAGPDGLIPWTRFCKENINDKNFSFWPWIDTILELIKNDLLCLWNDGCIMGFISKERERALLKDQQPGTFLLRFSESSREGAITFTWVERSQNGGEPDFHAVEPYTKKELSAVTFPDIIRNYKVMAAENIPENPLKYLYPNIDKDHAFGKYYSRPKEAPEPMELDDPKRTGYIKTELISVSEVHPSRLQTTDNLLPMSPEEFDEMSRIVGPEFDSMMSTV
Experiment: co-IP; RAW264.7 cells treated with LPS + IFN-gamma, with or without oxamate and with or without MG-132; 200 ug total cellular proteins with 2 ug antibody overnight at 4 C, protein A/G magnetic beads; IP with TRIM21 antibody and STAT1 blot, and IP with STAT1 antibody and TRIM21 blot

binding: binds
B1: Tripartite-motif protein 21 (TRIM21) (protein, UniProt Q62191 1-470)
chain: MSPSTTSKMSLEKMWEEVTCSICLDPMVEPMSIECGHCFCKECIFEVGKNGGSSCPECRQQFLLRNLRPNRHIANMVENLKQIAQNTKKSTQETHCMKHGEKLHLFCEEDGQALCWVCAQSGKHRDHTRVPIEEAAKVYQEKIHVVLEKLRKGKELAEKMEMDLTMQRTDWKRNIDTQKSRIHAEFALQNSLLAQEEQRQLQRLEKDQREYLRLLGKKEAELAEKNQALQELISELERRIRGSELELLQEVRIILERSGSWNLDTLDIDAPDLTSTCPVPGRKKMLRTCWVHITLDRNTANSWLIISKDRRQVRMGDTHQNVSDNKERFSNYPMVLGAQRFSSGKMYWEVDVTQKEAWDLGVCRDSVQRKGQFSLSPENGFWTIWLWQDSYEAGTSPQTTLHIQVPPCQIGIFVDYEAGVVSFYNITDHGSLIYTFSECVFAGPLRPFFNVGFNYSGGNAAPLKLCPLKM

Source: publication PMC12847007
